Laboratory results: article PMC8376909, “Identification of a transcription factor, PunR, that regulates the purine and purine nucleoside transporter punC in E. coli”
Construct, isoform or probe ends are uncertain for at least one entry. Negatives hold for the conditions tested. Where a protein sequence is shown, tags need not be part of it.

Biological target: T1, PunR (YdhB), LysR-family regulator (Escherichia coli K-12 (ASKA collection clone)) (UniProt P0ACR2)
T1 sequence (looked up, limits assumed): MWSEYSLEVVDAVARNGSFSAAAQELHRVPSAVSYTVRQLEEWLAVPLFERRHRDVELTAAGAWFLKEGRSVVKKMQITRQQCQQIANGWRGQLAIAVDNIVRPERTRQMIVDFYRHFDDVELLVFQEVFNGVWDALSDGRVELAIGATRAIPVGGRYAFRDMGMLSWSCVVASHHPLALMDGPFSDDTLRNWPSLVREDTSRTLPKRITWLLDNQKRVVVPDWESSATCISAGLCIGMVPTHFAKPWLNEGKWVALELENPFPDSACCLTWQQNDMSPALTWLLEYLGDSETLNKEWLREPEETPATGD
Test: fluorescence polarization
Conditions: no adenine, PunR 0-60 nM, 10 mM MgSO4; FP: 20 mM Tris-HCl pH 7.5, 0.1 M NaCl, 0.5 mM EDTA, 10 mM MgSO4, 2 mM DTT, 5 ug/ml herring sperm DNA, 10 nM DNA, 30 C 1 h; recombinant protein; protein details: N-terminal His6; label: 5' 6-carboxyfluorescein on printed strand

Question: Does “TGGGGACTGGTTTCAAAAATTTTGCAGGCAGAGGGG (double strand) [PunR-binding site 36 bp upstream of punC]” bind?
Answer: no binding
